Among all 330,000 compounds or so, about 7,700 (2.3%) were called active. Inconclusive results, whose numbers are uncertain, are shown with a selection of clear calls. The call rests on the fitted dose curve; in most records, active means well fitted inhibition curve with a large enough effect; inconclusive means small, poorly fitted or top-dose-only effect, or effect the other way; inactive means flat fitted curve, though single readings scatter. Potencies beside an inconclusive call are fits to weak or partial responses and may not hold up.
Assay: qHTS screen for small molecules that inhibit ELG1-dependent DNA repair in human embryonic kidney (HEK293T) cells expressing luciferase-tagged ELG1; further: nearly all actives have a fitted effect of over 55% in size
Details: HEK293T ELG1-luciferase reporter, luminescence, 16 h, DNA damage induced by 5-fluorouridine; activity change, negative = inhibition: at 46.1 µM (top of the series)
In short: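 Quantitative HTS, concentration-response format. 2,000 cells/well co-treated with 5-fluorouridine and compound, 16 hr in 5% CO2 at 37 °C; ONE-Glo luminescence read after 30 min.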
On the % scale 0 is the no-effect control and ±100 the full control effect; potency means the concentration at half of the fitted maximal effect.

SMILES	Potency	activity change, negative = inhibition
Cn1c(=O)c(C(=O)CSc2ccccc2)c(N)n(Cc2ccccc2)c1=O	inconclusive: 20.6 µM [activator, single point]	–
CN(CC(=O)Nc1cccc(F)c1)C(=O)CN1c2cccc3cccc(c23)S1(=O)=O	inconclusive: 23.1 µM [inhibitor, single point]	–
c1ccc(CCNc2nc(-c3cccnc3)cs2)cc1	inconclusive: 8.2 µM [activator, partial curve]	–
CC(OC(=O)c1ccc2c(=O)n3c(nc2c1)CCCCC3)C(N)=O (centres undefined)	inconclusive: 18.3 µM [activator, partial curve, poor fit]	–
C/C=C/c1ccc(OCC(=O)N(CCOC)c2c(N)n(CCCC)c(=O)[nH]c2=O)c(OC)c1	–	inactive: -16.2%
Cc1ccc(-c2c3c(=O)n(C)c(=O)n(C)c3cn2CCCN2CCOCC2)cc1	inconclusive: 20.6 µM [inhibitor, single point]	–
Cc1cccc(-c2nc3c(c(SCC(=O)N4CCOCC4)n2)Cc2c(CO)cnc(C)c2O3)c1	inconclusive: 4.11 µM [inhibitor, full curve]	–
CC1CCCCC1NC(=O)COC(=O)c1ccc2c(c1Cl)C(=O)c1ccccc1C2=O (centres undefined)	inconclusive: 29.1 µM [activator, single point]	–
Cc1cc(NCc2ccccc2)c2ccccc2n1	inconclusive: 13 µM [inhibitor, single point]	–
COc1ccc(C2NC(c3ccc(OC)cc3OC)C(C)C(=O)C2C)c(OC)c1 (centres undefined)	–	inactive: -9.4%
Cc1ccc(OCc2cc(C(=O)NCc3ccc(OC(F)(F)F)cc3)no2)cn1	–	inactive: -2.71%
COc1ccccc1C(=O)Nc1cccc(C(=O)c2ccccc2)c1	–	inactive: -12.7%
CN(C)S(=O)(=O)c1cccc(NC(=O)C2CCN(S(=O)(=O)c3cccs3)CC2)c1	active: 20.6 µM	–
COC(=O)CN1C(=S)N(c2ccc(Cl)cc2)C(=O)C1CC(=O)Nc1ccc(Cl)cc1 (centres undefined)	inconclusive: 2.51 µM [inhibitor, full curve, poor fit]	–
COc1cccc(CN2CCN(C3CCN(c4ccccc4C)CC3)CC2CCO)c1 (centres undefined)	inconclusive: 29.1 µM [inhibitor, single point]	–
COc1cc(/C=N/N=C(\N)c2nonc2N)cc(OC)c1O	inconclusive: 29.1 µM [activator, single point]	–
CCC(C)NS(=O)(=O)c1ccc(OCC(=O)NCc2cccnc2)cc1 (centres undefined)	–	inactive: -2.32%
CC1CCN(c2ccc3nnc(CCC(=O)N4CCN(c5ccccc5F)CC4)n3n2)CC1	inconclusive: 23.1 µM [inhibitor, partial curve, poor fit]	–
CS(=O)(=O)c1ccc(Cl)c(NC(=O)COc2ccc3c(c2)CCC3)c1	–	inactive: 0%
Cc1ccccc1Cn1c(=O)[nH]c2ccccc21	–	inactive: -14.6%
CC(=O)Nc1ccc(S(=O)(=O)N2CCN(c3cccc(C)c3C)CC2)cc1	inconclusive: 20.6 µM [inhibitor, partial curve]	–
Cc1cc2ncc(C(=O)Nc3ccsc3C(=O)O)c(C)n2n1	inconclusive: 0.0052 µM [inhibitor, full curve, poor fit]	–
CCOc1cc(C(=O)Nc2cc(C(=O)OC)ccc2C)ccc1OCC(=O)N1CCOCC1	–	inactive: 0.124%

SMILES	Potency	activity change, negative = inhibition
O=c1sc(N2CCN(c3ccccc3F)CC2)nc2ccsc12	inconclusive: 1.64 µM [activator, partial curve]	–
COc1ccc2oc(C(=O)OCC(=O)N(CC(C)C)c3c(N)n(Cc4ccccc4)c(=O)[nH]c3=O)c(C)c2c1	inconclusive: 4.11 µM [inhibitor, partial curve, poor fit]	–
COc1ccccc1N1CCN(C(=O)c2ccc3c(=O)n4c(nc3c2)CCCCC4)CC1	inconclusive: 20.6 µM [inhibitor, partial curve, poor fit]	–
O=C(/C=C/c1ccccn1)c1cc(Br)ccc1O	–	inactive: 6.3%
c1ccc(-c2noc(CN3CCc4sccc4C3)n2)cc1	inconclusive: 20.6 µM [activator, partial curve]	–
COc1cc(Cl)c(C)cc1NC(=O)CN1CCN(C(=O)C2CC2)CC1	–	inactive: -19.5%
COCCn1c(=S)[nH]c2cc(C(=O)N3CCN(c4cccc(Cl)c4)CC3)ccc2c1=O	inconclusive: 25.9 µM [inhibitor, single point]	–
CCOc1ccc2cc(C#N)c(SCC(=O)N3CCOCC3)nc2c1	inconclusive: 3.66 µM [activator, partial curve]	–
C=CCc1cccc(C2Nc3ccccc3C(=O)N2O)c1O (centres undefined)	inconclusive: 0.0116 µM [activator, full curve, poor fit]	–
COc1ccc(CCNC(=O)c2nonc2N)cc1OC	inconclusive: 18.4 µM [activator, partial curve, poor fit]	–
O=C(c1ccoc1)N1CCC2(CC1)Oc1ccc(Cl)cc1C(=O)C21CC(c2ccc(Cl)cc2)=NO1 (centres undefined)	inconclusive: 13 µM [inhibitor, partial curve]	–
Cc1ccc(O)c(-c2cc(C(=O)NCc3ccccc3)[nH]n2)c1	inconclusive: 16.4 µM [activator, single point]	–
COc1ccc(N(CC(=O)N2CCOCC2)S(C)(=O)=O)c(OC)c1	–	inactive: -16.8%
COc1ccc(Cc2n[nH]c(=S)n2N)cc1OC	–	inactive: -7.75%
CCC1CCc2sc(C(=O)NCC3CCCO3)cc2C1 (centres undefined)	inconclusive: 11.2 µM [activator, partial curve]	–
CC(=O)N1CCN(c2ccc(NCc3ccc(F)cc3)cc2)CC1	inconclusive: 11.6 µM [inhibitor, partial curve]	–
COc1ccc(/C=C/C(=O)c2ccc(OC)cc2O)cc1	inconclusive: 23.1 µM [activator, partial curve, poor fit]	–
CC(CC(=O)O)CC(=O)Nc1cccc([N+](=O)[O-])c1 (centres undefined)	inconclusive: 18.3 µM [inhibitor, single point]	–
Cc1ccc(/C=C(\C#N)C(=O)Nc2c(C)cccc2C)s1	–	inactive: -14.8%
COc1ccc(/C=N/Nc2ncnc3sc(C)c(C)c23)cc1	–	inactive: 11%
O=C(Nc1ccc2oc(=O)ccc2c1)c1ccc(-c2cccc([N+](=O)[O-])c2)o1	inconclusive: 29.1 µM [inhibitor, single point]	–
CCOC(=O)c1c(CSC(=N)N)n(-c2ccccc2)c2cc(Br)c(OC(C)=O)cc12	inconclusive: 18.3 µM [activator, single point]	–
COc1ccc(CCNC(=O)CCCOc2ccc(Cl)cc2)cc1OC	inconclusive: 14.1 µM [inhibitor, single point]	–

Whole records, looked up by structure. Order of values: Potency | activity change, negative = inhibition
COc1cc(Cl)c(C)cc1NC(=O)CN1CCN(C(=O)C2CC2)CC1 as listed: – | inactive: -19.5%
O=C(c1ccoc1)N1CCC2(CC1)Oc1ccc(Cl)cc1C(=O)C21CC(c2ccc(Cl)cc2)=NO1 (centres undefined) as listed: inconclusive: 13 µM [inhibitor, partial curve] | –
COc1ccccc1N1CCN(C(=O)c2ccc3c(=O)n4c(nc3c2)CCCCC4)CC1 as listed: inconclusive: 20.6 µM [inhibitor, partial curve, poor fit] | –
Cc1ccc(/C=C(\C#N)C(=O)Nc2c(C)cccc2C)s1 as listed: – | inactive: -14.8%

Remaining list, next part.

SMILES	Potency	activity change, negative = inhibition
O=C(NC(=S)Nc1ccccc1N1CCOCC1)c1ccc(Br)cc1	inconclusive: 18.3 µM [inhibitor, partial curve]	–
O=C(c1cc([N+](=O)[O-])ccc1N1CCCCC1)N1CCc2ccccc21	inconclusive: 2.91 µM [inhibitor, single point]	–
CCc1nonc1NC(=O)c1oc2cc(Br)ccc2c1C	inconclusive: 18.3 µM [activator, partial curve, poor fit]	–
C/C(=N\NC(=O)c1ccc(O)cc1)c1ccc(NC(=O)Cc2ccccc2)cc1	inconclusive: 18.3 µM [activator, partial curve]	–
CCOC(=O)C1CCN(Cc2ccc(O)c(OC)c2)CC1	inconclusive: 29.1 µM [activator, single point]	–
CC1=NN(C(=O)c2cc(C)nn2C)C(O)(C(F)(F)F)C1 (centres undefined)	–	inactive: 2.93%
COCCCNC(=O)c1ccc(Cn2c(=O)c3ccccc3n(CC(=O)NCc3ccco3)c2=O)cc1	inconclusive: 23.1 µM [activator, partial curve, poor fit]	–
Nc1c(NCc2ccccc2F)c(=O)[nH]c(=O)n1Cc1ccccc1	–	inactive: 10.4%
Cn1c(SCc2ccccc2)nnc1-c1ccco1	inconclusive: 20.6 µM [activator, partial curve]	–
O=C(c1c(F)cccc1F)N(Cc1ccccn1)C1CC1	inconclusive: 29.1 µM [activator, single point]	–
COc1ccc(-n2cc(CNCc3cnc4ccccn34)c(-c3cccc(F)c3)n2)cc1	–	inactive: -1.02%
O=C(NC1CC1)c1cccc(Nc2ccc(-c3ccc4c(c3)OCCO4)nn2)c1	inconclusive: 18.4 µM [inhibitor, single point]	–
S=C(Nc1cccc2ccccc12)NC1CCCCC1	inconclusive: 13 µM [activator, partial curve]	–
O=C(NC12CC3CC(CC(C3)C1)C2)c1ccc(-c2ccc(Br)cc2)o1	inconclusive: 2.31 µM [activator, full curve]	–
Cn1c(=O)[nH]c(=O)c2c1nc(SCCO)n2CCCc1ccccc1	–	inactive: 15.1%
c1ccc(-c2csc3ncnc(NCCN4CCOCC4)c23)cc1	active: 16.4 µM	–
CCN(CC)CCSc1nnc2c3cc(F)ccc3n(Cc3ccccc3)c2n1	–	inactive: -3.17%
Cc1cccc(NC(=S)N(Cc2cccs2)Cc2cc3cc(C)cc(C)c3[nH]c2=O)c1	inconclusive: 3.26 µM [inhibitor, partial curve, poor fit]	–
CCN(Cc1ccncc1)C(=O)c1cccc(S(=O)(=O)N2CCCCC2)c1	inconclusive: 3.26 µM [activator, single point]	–
CC(C)(C)N=C1C([N+](=O)[O-])=CC=C2C1=NC1(CCCCC1)N2O	–	inactive: 12.3%
CC(=O)Nc1ccc(Oc2cnc3ccccc3n2)cc1	inconclusive: 11.6 µM [inhibitor, partial curve, poor fit]	–
CCc1nnc(NC(=O)C2CCCCC2)s1	inconclusive: 23.1 µM [activator, partial curve, poor fit]	–
O=C(Nc1ccc2nc[nH]c2c1)c1ccco1	inconclusive: 16.4 µM [activator, partial curve]	–
